From the supplement of paper PMC8728848 come the findings set out here.

This is one part of the list.

Common to all, as to assay: glycan array binding signal (z-score within array); higher = stronger binding
Details in all cases: glycan notation: IUPAC condensed, linker removed

One assay concerns the target Glc(a1-6)Glc(a1-6)Glc. Summed up: (§1)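 Arrays were curated from the Consortium for Functional Glycomics database, 3228 in total, and kept only where the protein sequence was available. Binding is expressed as a within-array Z-score. This score was averaged across arrays of the same protein sequence at different concentrations or buffers and across linkers, and negative values can be read as non-binding.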

The target of a further assay is Glc(b1-4)Glc. The essentials:
as §1

The target of a further assay is Glc(b1-6)Glc. Summed up:
as §1

The next assay deals with GlcA(b1-3)Gal. Summed up: as §1
For another assay, the target named is GlcA(b1-3)GlcNAc. The essentials: as §1
Another assay deals with GlcA(b1-6)Gal. The essentials: as §1
Assay [1] deals with GlcNAc(a1-3)Gal(b1-4)GlcNAc. Summed up:
as §1

Assay [2] has as its target GlcNAc(a1-4)Gal(b1-3)GlcNAc. Summed up: as §1
Assay [3] concerns the target GlcNAc(a1-4)Gal(b1-4)GalNAc. Summed up: as §1
Assay [4] deals with GlcNAc(a1-4)Gal(b1-4)GlcNAc. Summed up:
as §1

The target in assay [5] is GlcNAc(a1-4)Gal(b1-4)GlcNAc(b1-3)Gal(b1-4)Glc. Summed up:
as §1

Assay [6] has as its target GlcNAc(a1-4)Gal(b1-4)GlcNAc(b1-3)Gal(b1-4)GlcNAc. Summed up:
as §1

The target of assay [7] is GlcNAc(a1-4)Gal(b1-4)GlcNAc(b1-3)Gal(b1-4)GlcNAc(b1-3)Gal(b1-4)GlcNAc. The essentials: as §1
The target of assay [8] is GlcNAc(a1-4)Gal(b1-4)GlcNAc(b1-3)Gal(b1-4)[Fuc(a1-3)]GlcNAc(b1-3)Gal(b1-4)[Fuc(a1-3)]GlcNAc. Summed up: as §1
Assay [9] has as its target GlcNAc(a1-6)Gal(b1-4)GlcNAc. Summed up:
as §1

For assay [10], the target named is GlcNAc(b1-2)Gal(b1-3)GalNAc. Summed up: as §1
Assay [11] has as its target GlcNAc(b1-2)Man(a1-3)[GlcNAc(b1-2)Man(a1-6)]Man(b1-4)GlcNAc(b1-4)GlcNAc. The essentials: as §1
Assay [12] concerns the target GlcNAc(b1-2)Man(a1-3)[GlcNAc(b1-2)Man(a1-6)]Man(b1-4)GlcNAc(b1-4)[Fuc(a1-6)]GlcNAc. The essentials:
as §1

For assay [13], the target named is GlcNAc(b1-2)[GlcNAc(b1-4)]Man(a1-3)[GlcNAc(b1-2)Man(a1-6)]Man(b1-4)GlcNAc(b1-4)GlcNAc. The essentials: as §1
The next assay concerns the target GlcNAc(b1-3)Gal. The essentials:
as §1

In assay [14] the target is GlcNAc(b1-3)Gal(b1-3)GalNAc. Summed up:
as §1

Another assay deals with GlcNAc(b1-3)Gal(b1-4)Glc. Summed up: as §1
In assay [15] the target is GlcNAc(b1-3)Gal(b1-4)GlcNAc. The essentials:
as §1

B1: SspB (Streptococcus gordonii), P16952 (protein)
chain: MKNKKEVYGFRKSKVAKTLCGAVLGTALIAFADKAVFADEVTETTSTSTVEVATTGNPATNLPEAQGEMSQVAKESQAKAGSKESALPVEVSSADLDKAVADAKSAGVKVVQDETKDKGTATTATDNAQKQDEIKSDYAKQAEEIKTTTEAYKKEVAAHQAETDKINAENKAADDKYQKDLKSHQEEVEKINTANATAKAEYEAKLAQYQKDLATVKKANEDSQQDYQNKLSAYQTELARVQKANAEAKEAYEKAVKENTAKNEALKVENEAIKQRNETAKATYEAAMKQYEADLAAIKKANEDNDADYQAKLAAYQTELARVQKANAEAKEAYDKAVKENTAKNTAIQAENEAIKQRNETAKATYDAAVKKYEADLAAVKQANATNEADYQAKLAAYQTELARVQKANADAKATYEKAVEDNKAKNAAIKAENEEIKQRNAVAKTDYEAKLAKYEADLAKYKKEFAAYTAALAEAESKKKQDGYLSEPRSQSLNFKSEPNAIRTIDSSVHQYGQQELDALVKSWGISPTNPDRKKSRAYSYFNAINSNNTYAKLVLEKDKPVDVTYTGLKNSSFNGKKISKVVYTYTLKETGFNDGTKMTMFASSDPTVTAWYNDYFTSTNINVKVKFYDEEGQLMNLTGGLVNFSSLNRGNGSGAIDKDAIESVRNFNGRYIPISGSSIKIHENNSAYADSSNAEKSLGARWNTSEWDTTSSPNNWYGAIVGEITQSEISFNMASSKSGNIWFAFNSNINAIGVPTKPVAPTAPTQPMYETEKPLEPAPVAPSYENEPTPPVKTPDQPEPSKPEEPTYETEKPLEPAPVAPSYENEPTPPVKTPDQPEPSKPEEPNYETEKPLEPAPVAPSYENEPTPPVKIPDQPEPSKPEEPTYDPLPTPPLAPTPKQLPTPPVVPTVHFHYSSLLAQPQINKEIKNEDGVDIDRTLVAKQSIVKFELKTEALTAGRPKTTSFVLVDPLPTGYKFDLDATKAASTGFDTTYDEASHTVTFKATDETLATYNADLTKPVETLHPTVVGRVLNDGATYTNNFTLTVNDAYGIKSNVVRVTTPGKPNDPDNPNNNYIKPTKVNKNKEGLNIDGKEVLAGSTNYYELTWDLDQYKGDKSSKEAIQNGFYYVDDYPEEALDVRPDLVKVADEKGNQVSGVSVQQYDSLEAAPKKVQDLLKKANITVKGAFQLFSADNPEEFYKQYVATGTSLVITDPMTVKSEFGKTGGKYENKAYQIDFGNGYATEVVVNNVPKITPKKDVTVSLDPTSENLDGQTVQLYQTFNYRLIGGLIPQNHSEELEDYSFVDDYDQAGDQYTGNYKTFSSLNLTMKDGSVIKAGTDLTSQTTAETDATNGIVTVRFKEDFLQKISLDSPFQAETYLQMRRIAIGTFENTYVNTVNKVAYASNTVRTTTPIPRTPDKPTPIPTPKPKDPDKPETPKEPKVPSPKVEDPSAPIPVSVGKELTTLPKTGTNDATYMPYLGLAALVGFLGLGLAKRKED
Regarding B1, the “glycan array binding signal (z-score)” value is -0.494 in the assay with Glc(a1-6)Glc(a1-6)Glc; 0.618 with Glc(b1-4)Glc; -1.1 with Glc(b1-6)Glc; -0.328 with GlcA(b1-3)Gal; 0.873 with GlcA(b1-3)GlcNAc; -0.658 in the assay with GlcA(b1-6)Gal. In addition, the “glycan array binding signal (z-score)” value is -1.09 in [1]; 0.545 in assay [2]; -0.557 in assay [3]; 0.474 in [4]; 0.925 in [5]; -0.973 in assay [6]. The “glycan array binding signal (z-score)” value in assay [7] is -0.449; in [8], 3.03; in assay [9], -0.466; in assay [10], 0.091; in [11], -0.276; in assay [12], -0.155. Further, the “glycan array binding signal (z-score)” value in assay [13] was 0.168; with GlcNAc(b1-3)Gal it was -1.18; in assay [14], -0.668; with GlcNAc(b1-3)Gal(b1-4)Glc it was 0.075; in assay [15], -0.304.
